These are yes or no findings as the source states them, for the method shown. Some results given as binding are weak or reduced against the parent protein; the word gives no strength.

Sequences of proteins named here, by UniProt entry; tags and fusion partners are left off.
UniProt Q6P6J0: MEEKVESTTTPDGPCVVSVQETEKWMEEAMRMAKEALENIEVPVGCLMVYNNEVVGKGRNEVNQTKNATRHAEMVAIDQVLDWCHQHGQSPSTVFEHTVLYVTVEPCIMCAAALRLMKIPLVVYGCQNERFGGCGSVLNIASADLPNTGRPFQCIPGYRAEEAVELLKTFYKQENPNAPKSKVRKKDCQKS

The assay addresses T1, mouse ADAT3 (mouse) (UniProt Q6PAT0).
T1 sequence: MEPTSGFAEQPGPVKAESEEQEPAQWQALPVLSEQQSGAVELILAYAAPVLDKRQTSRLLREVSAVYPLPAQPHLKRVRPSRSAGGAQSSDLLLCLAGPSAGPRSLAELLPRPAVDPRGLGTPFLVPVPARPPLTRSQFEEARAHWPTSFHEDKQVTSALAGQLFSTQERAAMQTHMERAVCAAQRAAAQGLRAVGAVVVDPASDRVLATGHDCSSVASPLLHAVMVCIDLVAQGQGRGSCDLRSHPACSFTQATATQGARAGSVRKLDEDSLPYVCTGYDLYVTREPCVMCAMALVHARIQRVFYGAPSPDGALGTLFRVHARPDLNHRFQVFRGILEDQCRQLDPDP
Put plainly: co-expression and co-purification; untagged ADAT2 co-expressed in E. coli BL21(DE3) with His-thioredoxin-ADAT3 (WT or mutant); Talon resin, release by 3C protease overnight at 4°C, HiTrap Q ion exchange, Superdex 200 in 10 mM Tris HCl pH 8.0, 200 mM NaCl, 0.5 mM TCEP.

“mouse ADAT2 (from UniProt Q6P6J0 1-191) (enzyme)”: the binding result was “binds”.

Source of the values: paper PMC8216470.
